Some of the results follow.

Sequences of proteins named here, by UniProt entry; tags and fusion partners are left off. A change or cut given only in a name is not applied to a line headed by its entry.
UniProt Q9BXW6, whole entry, looked up: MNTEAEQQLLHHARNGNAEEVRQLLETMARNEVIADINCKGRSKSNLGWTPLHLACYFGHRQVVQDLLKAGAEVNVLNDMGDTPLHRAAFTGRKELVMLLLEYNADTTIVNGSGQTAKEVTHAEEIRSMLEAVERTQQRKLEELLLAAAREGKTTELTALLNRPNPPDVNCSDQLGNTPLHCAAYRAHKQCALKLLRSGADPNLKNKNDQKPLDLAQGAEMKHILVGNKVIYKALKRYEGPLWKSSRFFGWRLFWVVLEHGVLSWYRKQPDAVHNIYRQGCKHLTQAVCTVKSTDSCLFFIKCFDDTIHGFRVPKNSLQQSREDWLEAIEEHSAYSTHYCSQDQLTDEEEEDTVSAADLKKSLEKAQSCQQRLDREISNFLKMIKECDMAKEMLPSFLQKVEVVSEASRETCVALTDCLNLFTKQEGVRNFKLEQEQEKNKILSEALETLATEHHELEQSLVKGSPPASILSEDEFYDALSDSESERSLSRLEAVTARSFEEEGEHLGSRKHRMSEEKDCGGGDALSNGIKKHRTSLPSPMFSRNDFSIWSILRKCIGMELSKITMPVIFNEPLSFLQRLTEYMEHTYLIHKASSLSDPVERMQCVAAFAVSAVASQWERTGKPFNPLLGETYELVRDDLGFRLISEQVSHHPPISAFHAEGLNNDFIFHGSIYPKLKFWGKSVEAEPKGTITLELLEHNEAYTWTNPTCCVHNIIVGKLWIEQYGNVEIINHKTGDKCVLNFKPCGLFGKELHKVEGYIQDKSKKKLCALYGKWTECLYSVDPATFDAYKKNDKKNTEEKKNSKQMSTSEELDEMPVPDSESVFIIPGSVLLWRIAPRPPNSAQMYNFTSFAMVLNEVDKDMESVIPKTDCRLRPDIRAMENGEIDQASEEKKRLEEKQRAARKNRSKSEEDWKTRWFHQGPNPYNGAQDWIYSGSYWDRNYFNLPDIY
UniProt Q460N5, whole entry, looked up: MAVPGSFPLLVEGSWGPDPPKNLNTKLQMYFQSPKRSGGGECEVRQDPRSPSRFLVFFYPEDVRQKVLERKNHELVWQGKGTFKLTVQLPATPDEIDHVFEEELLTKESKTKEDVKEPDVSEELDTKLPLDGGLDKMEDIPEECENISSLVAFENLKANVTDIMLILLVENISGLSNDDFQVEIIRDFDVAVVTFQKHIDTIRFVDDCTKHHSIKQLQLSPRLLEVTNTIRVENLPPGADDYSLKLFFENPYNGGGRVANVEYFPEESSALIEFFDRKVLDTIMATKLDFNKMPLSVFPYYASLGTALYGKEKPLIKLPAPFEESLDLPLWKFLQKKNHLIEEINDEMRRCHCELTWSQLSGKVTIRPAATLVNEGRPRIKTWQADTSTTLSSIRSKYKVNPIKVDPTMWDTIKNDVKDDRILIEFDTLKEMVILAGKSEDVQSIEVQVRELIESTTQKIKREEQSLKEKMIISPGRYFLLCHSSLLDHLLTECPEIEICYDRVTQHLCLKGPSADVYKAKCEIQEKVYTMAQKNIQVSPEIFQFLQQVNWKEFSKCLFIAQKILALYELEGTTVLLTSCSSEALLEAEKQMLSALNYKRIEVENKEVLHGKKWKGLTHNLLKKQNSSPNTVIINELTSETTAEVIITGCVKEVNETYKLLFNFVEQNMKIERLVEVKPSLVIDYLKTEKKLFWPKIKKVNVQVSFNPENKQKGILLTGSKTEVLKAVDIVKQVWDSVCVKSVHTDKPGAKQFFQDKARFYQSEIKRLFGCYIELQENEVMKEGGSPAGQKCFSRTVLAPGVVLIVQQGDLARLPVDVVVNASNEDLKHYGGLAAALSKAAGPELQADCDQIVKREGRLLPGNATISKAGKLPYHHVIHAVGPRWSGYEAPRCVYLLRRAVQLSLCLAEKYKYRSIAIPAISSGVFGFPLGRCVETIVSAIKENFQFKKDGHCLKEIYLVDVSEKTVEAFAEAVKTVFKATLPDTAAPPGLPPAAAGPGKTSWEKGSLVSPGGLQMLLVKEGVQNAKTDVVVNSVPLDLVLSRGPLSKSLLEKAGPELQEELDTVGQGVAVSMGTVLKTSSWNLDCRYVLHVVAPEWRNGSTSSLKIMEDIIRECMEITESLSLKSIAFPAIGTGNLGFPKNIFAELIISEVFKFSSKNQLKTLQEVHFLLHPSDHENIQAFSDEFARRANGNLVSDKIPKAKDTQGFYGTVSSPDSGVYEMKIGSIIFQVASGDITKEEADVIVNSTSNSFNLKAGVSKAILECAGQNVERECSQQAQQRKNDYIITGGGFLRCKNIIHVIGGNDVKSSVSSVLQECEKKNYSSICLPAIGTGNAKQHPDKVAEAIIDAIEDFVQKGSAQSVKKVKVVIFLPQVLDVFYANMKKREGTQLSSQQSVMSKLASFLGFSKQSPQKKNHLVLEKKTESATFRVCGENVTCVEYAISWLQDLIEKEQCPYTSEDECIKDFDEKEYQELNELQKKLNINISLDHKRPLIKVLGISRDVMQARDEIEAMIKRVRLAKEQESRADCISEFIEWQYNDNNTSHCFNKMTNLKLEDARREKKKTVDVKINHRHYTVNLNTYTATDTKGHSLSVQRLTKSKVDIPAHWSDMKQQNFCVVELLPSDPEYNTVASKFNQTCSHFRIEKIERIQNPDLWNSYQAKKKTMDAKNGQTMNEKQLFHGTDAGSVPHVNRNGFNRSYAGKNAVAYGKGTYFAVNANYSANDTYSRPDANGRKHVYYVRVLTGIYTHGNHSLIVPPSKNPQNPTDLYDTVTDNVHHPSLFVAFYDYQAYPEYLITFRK
UniProt Q96FW1, whole entry, looked up: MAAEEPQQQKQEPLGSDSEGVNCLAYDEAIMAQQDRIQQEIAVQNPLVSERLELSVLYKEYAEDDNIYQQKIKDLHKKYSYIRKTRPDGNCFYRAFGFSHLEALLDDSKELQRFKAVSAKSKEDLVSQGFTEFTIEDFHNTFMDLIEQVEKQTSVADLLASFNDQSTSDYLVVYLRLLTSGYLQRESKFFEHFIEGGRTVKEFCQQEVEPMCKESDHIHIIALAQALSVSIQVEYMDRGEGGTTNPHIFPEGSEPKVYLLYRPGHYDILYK
UniProt Q9NPF4: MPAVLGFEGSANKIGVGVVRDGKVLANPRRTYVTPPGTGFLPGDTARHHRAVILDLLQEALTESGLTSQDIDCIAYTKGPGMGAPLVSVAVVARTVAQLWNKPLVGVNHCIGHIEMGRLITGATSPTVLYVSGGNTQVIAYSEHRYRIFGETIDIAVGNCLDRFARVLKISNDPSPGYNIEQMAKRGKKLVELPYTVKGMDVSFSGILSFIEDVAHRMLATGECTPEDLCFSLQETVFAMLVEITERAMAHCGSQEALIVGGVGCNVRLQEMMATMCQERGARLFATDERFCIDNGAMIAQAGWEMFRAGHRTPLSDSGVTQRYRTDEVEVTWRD
UniProt Q53GL7: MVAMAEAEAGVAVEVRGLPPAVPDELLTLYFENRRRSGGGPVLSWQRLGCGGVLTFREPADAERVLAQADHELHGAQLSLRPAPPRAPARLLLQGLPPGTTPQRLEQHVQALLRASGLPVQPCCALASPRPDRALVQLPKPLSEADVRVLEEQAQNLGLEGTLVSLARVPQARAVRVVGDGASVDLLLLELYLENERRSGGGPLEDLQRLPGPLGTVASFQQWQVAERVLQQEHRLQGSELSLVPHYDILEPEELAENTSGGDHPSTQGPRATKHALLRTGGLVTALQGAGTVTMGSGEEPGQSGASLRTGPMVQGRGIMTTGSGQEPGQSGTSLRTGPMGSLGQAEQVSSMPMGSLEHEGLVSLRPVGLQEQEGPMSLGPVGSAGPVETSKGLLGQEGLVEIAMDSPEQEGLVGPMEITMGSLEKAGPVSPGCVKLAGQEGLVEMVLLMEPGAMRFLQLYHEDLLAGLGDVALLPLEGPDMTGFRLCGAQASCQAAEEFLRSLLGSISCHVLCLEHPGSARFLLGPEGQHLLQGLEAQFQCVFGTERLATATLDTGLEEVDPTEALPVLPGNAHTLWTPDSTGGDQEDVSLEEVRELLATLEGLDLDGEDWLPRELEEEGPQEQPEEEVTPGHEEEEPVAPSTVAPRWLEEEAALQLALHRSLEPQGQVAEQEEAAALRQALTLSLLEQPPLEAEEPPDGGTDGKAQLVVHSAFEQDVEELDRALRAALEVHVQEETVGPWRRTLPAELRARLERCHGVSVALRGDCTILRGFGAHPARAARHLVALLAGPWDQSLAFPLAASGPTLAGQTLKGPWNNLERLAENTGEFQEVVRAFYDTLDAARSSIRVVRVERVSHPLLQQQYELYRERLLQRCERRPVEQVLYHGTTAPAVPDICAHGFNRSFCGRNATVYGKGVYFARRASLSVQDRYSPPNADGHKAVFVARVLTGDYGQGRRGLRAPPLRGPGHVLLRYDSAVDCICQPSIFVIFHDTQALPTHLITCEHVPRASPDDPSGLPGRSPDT
UniProt P43034: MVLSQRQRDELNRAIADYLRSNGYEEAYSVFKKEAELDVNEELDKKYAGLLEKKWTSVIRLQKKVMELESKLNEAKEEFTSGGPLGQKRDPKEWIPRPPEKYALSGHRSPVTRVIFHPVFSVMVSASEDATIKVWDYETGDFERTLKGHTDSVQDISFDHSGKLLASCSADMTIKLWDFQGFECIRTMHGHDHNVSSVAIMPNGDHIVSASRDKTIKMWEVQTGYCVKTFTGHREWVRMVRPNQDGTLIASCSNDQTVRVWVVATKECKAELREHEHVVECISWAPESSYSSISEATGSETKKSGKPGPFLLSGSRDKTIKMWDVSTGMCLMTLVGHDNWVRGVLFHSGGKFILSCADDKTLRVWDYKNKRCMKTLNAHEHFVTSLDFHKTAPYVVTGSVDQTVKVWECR
UniProt Q9UKK3: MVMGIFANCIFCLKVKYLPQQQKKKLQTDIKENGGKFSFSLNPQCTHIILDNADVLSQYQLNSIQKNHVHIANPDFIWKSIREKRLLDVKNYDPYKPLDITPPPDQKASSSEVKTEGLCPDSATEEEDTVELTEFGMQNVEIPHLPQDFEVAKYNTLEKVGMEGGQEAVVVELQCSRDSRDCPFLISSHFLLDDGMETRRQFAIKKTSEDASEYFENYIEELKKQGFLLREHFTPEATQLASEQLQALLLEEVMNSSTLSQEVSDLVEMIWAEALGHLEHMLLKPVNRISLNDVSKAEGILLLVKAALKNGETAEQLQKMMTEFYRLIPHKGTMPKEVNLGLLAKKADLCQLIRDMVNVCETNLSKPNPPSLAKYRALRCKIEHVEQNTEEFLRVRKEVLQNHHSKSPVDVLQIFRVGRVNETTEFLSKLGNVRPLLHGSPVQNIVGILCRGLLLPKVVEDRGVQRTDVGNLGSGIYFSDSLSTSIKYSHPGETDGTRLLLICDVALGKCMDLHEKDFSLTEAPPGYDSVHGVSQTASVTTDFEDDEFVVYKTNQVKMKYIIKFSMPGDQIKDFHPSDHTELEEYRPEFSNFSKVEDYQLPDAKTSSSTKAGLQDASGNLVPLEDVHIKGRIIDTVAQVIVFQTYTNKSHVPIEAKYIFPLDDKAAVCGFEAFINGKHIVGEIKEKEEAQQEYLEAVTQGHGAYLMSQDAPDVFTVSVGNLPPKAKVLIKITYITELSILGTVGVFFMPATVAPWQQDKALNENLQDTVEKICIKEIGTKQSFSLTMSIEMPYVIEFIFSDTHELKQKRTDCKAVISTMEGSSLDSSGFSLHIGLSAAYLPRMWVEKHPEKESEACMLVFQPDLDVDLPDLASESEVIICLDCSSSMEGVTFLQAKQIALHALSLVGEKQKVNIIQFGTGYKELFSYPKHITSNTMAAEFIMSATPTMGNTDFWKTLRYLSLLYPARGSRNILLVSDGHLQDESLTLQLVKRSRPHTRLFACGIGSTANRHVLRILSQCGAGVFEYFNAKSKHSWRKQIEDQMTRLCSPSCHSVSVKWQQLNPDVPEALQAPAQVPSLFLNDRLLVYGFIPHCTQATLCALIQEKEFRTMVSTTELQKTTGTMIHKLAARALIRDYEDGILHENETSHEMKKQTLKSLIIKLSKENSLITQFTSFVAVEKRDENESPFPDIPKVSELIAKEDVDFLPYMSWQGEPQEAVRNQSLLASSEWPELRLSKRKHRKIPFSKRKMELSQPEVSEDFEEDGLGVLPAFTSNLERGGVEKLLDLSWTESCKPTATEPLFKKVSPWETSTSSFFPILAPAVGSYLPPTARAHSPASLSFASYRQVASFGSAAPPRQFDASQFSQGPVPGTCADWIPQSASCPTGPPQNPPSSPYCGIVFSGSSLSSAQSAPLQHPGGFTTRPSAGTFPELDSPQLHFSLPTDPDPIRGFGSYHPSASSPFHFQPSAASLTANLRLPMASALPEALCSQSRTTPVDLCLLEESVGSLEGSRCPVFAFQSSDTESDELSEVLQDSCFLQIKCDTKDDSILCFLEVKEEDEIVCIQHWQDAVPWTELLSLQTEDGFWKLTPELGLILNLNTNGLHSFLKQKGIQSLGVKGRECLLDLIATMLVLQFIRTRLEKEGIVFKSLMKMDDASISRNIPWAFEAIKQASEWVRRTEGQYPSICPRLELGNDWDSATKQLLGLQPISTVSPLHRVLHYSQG

Compound in this experiment: Cc1cc(ccc1-c1ccccc1)C(=O)N1CCCN(CC1)C(=O)CCl [compound 10]
Briefly: probe-labelled cysteine peptide fold change vs DMSO (competition) (log2 fold change); higher = less target engagement (more negative = stronger competition). The conditions noted are these: THP-1, incubation time: 4 h.
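Further: competitive profiling in live THP-1 cells: cysteine peptides tagged with an iodoacetamide desthiobiotin (IA-DTB) probe, intensity after compound treatment relative to DMSO-treated cells.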

“OSBPL1A_Q9BXW6_39_NEVIADINCK (UniProt Q9BXW6)”: the “probe-labelled cysteine peptide fold change” value (10 µM) is 0.149 and the “probe-labelled cysteine peptide fold change” value (50 µM) is 0.0482.
On the same counts, the results for “PARP14_Q460N5_849_AAGPELQADCDQIVK (UniProt Q460N5)” are -0.388 and -0.321.
On the same counts, the results for “ORC1_Q13415_253_RLELGNLGNPQMSQQTSCASLDSPGR (UniProt Q13415)” are -0.643 and -0.242.
The corresponding values for OS9_Q13438_73_QRYECR (UniProt Q13438) are 0.0266 and 0.225.
Consider “OSBPL1A_Q9BXW6_289_HLTQAVCTVK (UniProt Q9BXW6)”, for which the “probe-labelled cysteine peptide fold change” value was 0.0171 (10 µM) and 0.0205 (50 µM).
On the same counts, the results for “PARP14_Q460N5_208_FVDDCTK (UniProt Q460N5)” are -0.214 and -0.245.
The corresponding values for “OTUB1_Q96FW1_212_EFCQQEVEPMCK (UniProt Q96FW1)” are -0.0656 and -0.0302.
On the same counts, the results for “PAK4_O96013_336_IGEGSTGIVCIATVR (UniProt O96013)” are 0.142 and 0.283.
Turning to “OSBPL8_Q9BZF1_575_GEDYVMTMPYAHCK (UniProt Q9BZF1)”, the “probe-labelled cysteine peptide fold change” value reads like this: (10 µM) 0.0779; (50 µM) 0.215.
On the same counts, the results for “OSGEP_Q9NPF4_277_LQEMMATMCQER (UniProt Q9NPF4)” are -0.0942 and -0.0539.
On the same counts, the results for “PA2G4_Q9UQ80_296_MGVVECAK (UniProt Q9UQ80)” are -0.0573 and -0.174.
The corresponding values for “PARP14_Q460N5_509_VTQHLCLK (UniProt Q460N5)” are 0.0914 and 0.48.
Regarding “PARP10_Q53GL7_50_LGCGGVLTFREPADAER (UniProt Q53GL7)”, the “probe-labelled cysteine peptide fold change” value reads like this: (10 µM) -0.164; (50 µM) -0.499.
The corresponding values for “PAFAH1B1_P43034_252_MVRPNQDGTLIASCSNDQTVR (UniProt P43034)” are 0.155 and 0.125.
The corresponding values for “PARP4_Q9UKK3_182_DCPFLISSHFLLDDGMETR (UniProt Q9UKK3)” are 0.281 and -0.197.

The values above are taken from the supplement of paper PMC12067093, “Discovery and optimisation of a covalent ligand for TRIM25 and its application to targeted protein ubiquitination” (Chemical Science, 2025).
